{"source": "paper PMC8536600", "about": "(Cancer Chemotherapy and Pharmacology, 2021)", "origin": "cited, not measured here", "tested_on": "CYP3A4", "conditions": "cited from earlier work"}
{"smiles": "COC(=O)C1=C(C)NC(C)=C(C(=O)OC)C1c1ccccc1[N+](=O)[O-]", "note": "[Nifedipine]", "values": [{"measurement": "CYP3A4 (inhibitor / inducer)", "result": "inducer / inhibitor"}]}
